According to US20130012404A1, “CULTURE METHOD, EVALUATION METHOD AND STORAGE METHOD FOR CANCER-TISSUE-DERIVED CELL MASS OR AGGREGATED CANCER CELL MASS” (Osaka Prefectural Hospital Organization, priority 2010, published 2013):
At least one structure is not confirmed: it was looked up by name or label, or the drawing left a doubt.

System: cell masses derived from the cancer tissues from a plurality of patients with breast cancers
Experiment: Hormone sensitivity test of cell mass derived from breast cancer tissue
Format: cell-based, human
Settings: estradiol (+) vs (−), day 0 to day 6; FIG. 8

C[C@]12CC[C@@H]3c4ccc(O)cc4CC[C@H]3[C@@H]1CC[C@@H]2O [estradiol]
proliferation of the cell mass in the presence or absence of estradiol: there are a case where proliferation is promoted by the addition of estradiol and a case that does not respond to estradiol
